# Results of single-concentration screens

The chains behind the UniProt entries cited, without tags or fusion partners. Residues count along the entry.
UniProt Q4DA54, 1-478: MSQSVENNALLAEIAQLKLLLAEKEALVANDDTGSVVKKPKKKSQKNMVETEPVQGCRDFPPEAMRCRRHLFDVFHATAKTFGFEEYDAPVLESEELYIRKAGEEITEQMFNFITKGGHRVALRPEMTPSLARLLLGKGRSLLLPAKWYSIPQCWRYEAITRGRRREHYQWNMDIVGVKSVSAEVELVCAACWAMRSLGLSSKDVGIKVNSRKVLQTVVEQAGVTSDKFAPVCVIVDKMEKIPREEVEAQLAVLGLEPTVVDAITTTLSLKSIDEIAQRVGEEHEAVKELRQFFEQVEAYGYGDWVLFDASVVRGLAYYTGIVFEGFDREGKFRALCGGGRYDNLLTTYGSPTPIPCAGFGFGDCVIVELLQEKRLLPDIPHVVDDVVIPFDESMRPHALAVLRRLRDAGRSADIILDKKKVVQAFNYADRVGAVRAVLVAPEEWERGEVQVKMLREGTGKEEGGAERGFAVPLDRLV

Results are given as percent effect. The controls that fix the scale are not given in the record; negative values are as filed. The compounds are a random part of those screened.

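Enzyme assay of histidyl-tRNA synthetase; the read-out is not stated. Target: Histidine-tRNA ligase, Trypanosoma cruzi CL Brener (UniProt Q4DA54). Concentration: 30 µM. The record gives no direction; compounds that gave an IC50 in retests scored well above the rest, so higher reads as stronger inhibition. Size under these conditions: about 69,000 compounds, about 31 of them at 50% or above in at least one test.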

| # | Compound | effect |
|---|---|---|
| 1 | `c1cnnc(N2CCCC2CNCc2nc(C3CC3)no2)c1` (centres unmarked) | 3.053% |
| 2 | `CCN(Cc1cccc(F)c1)Cc1nc2c(cnn2C)c(=O)[nH]1` | 3.207% |
| 3 | `COc1cc(-c2nc(N)n[nH]2)cc(OC)c1OC` | 0.9901% |
| 4 | `CCCN1CC2(CCN(c3ccc(C(C)=O)cn3)CC2)CC1C(=O)O` (centres unmarked) | 8.163% |
| 5 | `CCc1cnc(NCCSc2cnn[nH]2)nc1` | -4.046% |
| 6 | `CC(=O)Nc1nc(C2CCN(C(=O)c3cccnc3)CC2)cs1` | -0.5464% |
| 7 | `CN(Cc1nnc(C2CC2)n1C)S(=O)(=O)Cc1ccccc1F` | 2.439% |
| 8 | `Cn1c(CO)cnc1SC(C(=O)NC1CC1)c1ccccc1` (centres unmarked) | 2.299% |
| 9 | `Cc1nn(CCNC(C)Cn2cncn2)c(C)c1Cl` (centres unmarked) | 7.317% |
| 10 | `CN(C(=O)c1cccc(C#N)c1)c1nnc(C2CCOC2)s1` (centres unmarked) | -2.825% |
| 11 | `CN(C)C(=O)C1(C)CN(Cc2cn(C)c3ccccc23)CCO1` (centres unmarked) | 8.462% |
| 12 | `CNc1cc(C2CCCN(Cc3ccccc3OCC(=O)O)C2)ccn1` (centres unmarked) | 6.742% |
| 13 | `Cc1nc(CN(C)c2nccc(N(C)C)n2)cs1` | 5.419% |
| 14 | `CCOCc1nc(-c2cccc(OC)c2OC)n(C2CCN(C)CC2)n1` | 1.493% |
| 15 | `CCNC(=O)N(C)Cc1ccc(SC)c(OC)c1` | -1.604% |
| 16 | `O=C(NCc1nncn1C1CC1)C1(c2ccccc2)CCOCC1` | 5.063% |
| 17 | `COC(=O)N1CCC(Nc2ccc(Cl)c(C#N)n2)CC1` | 3.982% |
| 18 | `c1csc(CN2CCCC3(COCCN(Cc4c[nH]nn4)C3)C2)c1` (centres unmarked) | 0% |
| 19 | `CCN(CC1CCOC1)S(=O)(=O)Cc1ccccc1Cl` (centres unmarked) | 5.882% |
| 20 | `O=C(O)CNc1cc(-c2cc(C(=O)NC3CC3)ccn2)c2cc[nH]c2n1` | 21.6% |
| 21 | `O=c1oc(-c2ccc(F)cc2)nn1CCS(=O)(=O)c1ccccc1` | 1.031% |
| 22 | `COc1ccc([C@@H](C)n2ccnc2-c2cc3n(n2)CCCNC3)cc1` | 10.12% |
| 23 | `Cc1noc(C)c1C(=O)N1CCSc2ccc(Cl)cc21` | 8.911% |
| 24 | `C=C(C)COc1ccccc1C(=O)N1CCC(C(=O)NCC)C1` (centres unmarked) | 6.468% |
| 25 | `O=C(c1cc(F)ccc1O)N1CCN(C2CCSC2)CC1` (centres unmarked) | 3.879% |
| 26 | `CCN(Cc1cc(Br)ccc1F)C(=O)C(C)NC(N)=O` (centres unmarked) | 13.69% |
| 27 | `CC(C)c1nnc2n1CC(CNCc1ccncc1)CC2` (centres unmarked) | 8.13% |
| 28 | `CNc1nccnc1C1CN(Cc2ccc3[nH]ccc3c2)CCO1` (centres unmarked) | 4.135% |
| 29 | `CCc1nnc(SC2CCN(c3ccccc3F)C2=O)n1C` (centres unmarked) | 8.28% |
| 30 | `CCOCCC1(C(=O)N2CCCC(c3ncc[nH]3)C2)CCCC1` (centres unmarked) | 2.439% |
| 31 | `CNC(=O)c1cccc(CNC(C)c2cc(C)ccc2OC(F)F)c1` (centres unmarked) | -0.5405% |
| 32 | `CNC(=O)c1ccnc(CC2COc3c(cccc3OC)C2)c1` (centres unmarked) | 7.463% |
| 33 | `CNC(=O)NC(=O)CN1CCN(CC(F)(F)F)CC1(C)C` | 4.762% |
| 34 | `CCOc1ccccc1C(CC(=O)Nc1ccccc1)NC(C)=O` (centres unmarked) | 4.372% |
| 35 | `C[C@@H]1CN(S(=O)(=O)c2ccc(F)cc2Cl)C[C@]1(C)O` | 7.216% |
| 36 | `COc1cccc(CNc2c(C)cnc3c2c(=O)n(C)c(=O)n3C)c1` | -1.653% |
| 37 | `CCc1ncc(CN2C[C@H]3CC[C@@H]2CN(C(=O)C2CCC2)C3)cn1` | 7.097% |
| 38 | `CC(c1ccccc1)N1CCC(NC(=O)CCc2ccsc2)CC1` (centres unmarked) | 12.07% |
| 39 | `Cn1cccc1C(=O)N1C[C@H]2CN(Cc3cccs3)C[C@H]2C1` | 5.825% |
| 40 | `Cc1noc(C2CCC3(CCN(C(=O)c4ccncn4)CC3)O2)n1` (centres unmarked) | 5.607% |
| 41 | `CN(Cc1nc(-c2ccccc2)no1)C(=O)CNS(C)(=O)=O` | 1.948% |
| 42 | `O=C(c1cccc(S(=O)(=O)NCCc2ccccn2)c1)N1CCOCC1` | 0.5025% |
| 43 | `C[C@@H](N)C(=O)N1CCC(c2[nH]ncc2-c2ccccc2)CC1` | 9.045% |
| 44 | `Cc1csc(NC(=O)Cn2nc(C)ccc2=O)n1` | 7.772% |
| 45 | `CNS(=O)(=O)c1cccc(CNC(=O)c2c(C)nn(C)c2C)c1` | 4.135% |
| 46 | `COCc1nc(C(=O)N2CCCC2c2cccc(C)c2)cs1` (centres unmarked) | 6.761% |
| 47 | `CN(C)[C@@H]1CN(Cc2cccnc2)C[C@H]1c1cn(C)c2ccccc12` | 1.916% |
| 48 | `CN(C)C(=O)CN1CCCc2c(F)cc(Br)cc21` | 9.524% |
| 49 | `Cc1nc(O)c2nnn(C[C@H]3CCCN3C(=O)c3ccc(F)cc3)c2n1` | 2.128% |
| 50 | `CNC(=O)N1CCCCC1c1nnc2n1CCCC2` (centres unmarked) | -0.4484% |
| 51 | `CN(CCC(=O)N1CCc2sccc2C1)Cc1cnn(C)c1` | 4.035% |
| 52 | `CS(=O)(=O)N1CCOC2(CCN(c3ncccn3)CC2)c2ccccc21` | 5.376% |
| 53 | `CN(C)c1nc2c(c(=O)[nH]1)CCN(C(=O)c1cccc3nccnc13)C2` | 0% |
| 54 | `Cc1nn(C)cc1CC(C#N)C(=O)Nc1cccc(O)c1` (centres unmarked) | 9.278% |
| 55 | `O=c1[nH]c(-c2ccncc2)ncc1-c1ccnc(NC2CC2)n1` | -1.13% |
| 56 | `CC(Cn1ccnc1)NC(=O)N1CCN(Cc2cccnc2)CC1` (centres unmarked) | 4.183% |
| 57 | `O=C(NCC(F)(F)F)c1coc(COc2cccc(F)c2)n1` | -2.174% |
| 58 | `OC(c1cnn(-c2ccccc2)c1)C(F)(F)F` (centres unmarked) | 4.972% |
| 59 | `CCC(CC)c1cc(CNC(=O)N2CCCN(C(C)=O)CC2)on1` | -2.326% |
| 60 | `CS(=O)(=O)N1CCCC1Cn1cccn1` (centres unmarked) | 3.802% |
| 61 | `COc1cccc(N2CCN(C(=O)CO)CC2=O)c1` | 0% |
| 62 | `c1ccc(Cn2cc(CNc3ncnc4c3CCNCC4)cn2)cc1` | 2.97% |
| 63 | `CNC(=O)C1(CCCc2cccnc2)CCCCN1` (centres unmarked) | 0.5405% |
| 64 | `c1ccc2c(c1)CC(n1ccnc1-c1cc3n(n1)CCCNC3)CO2` (centres unmarked) | 2.899% |
| 65 | `Cc1cccc(NCCNc2ccc(C#N)cn2)n1` | -2.041% |
| 66 | `O=C(NCc1ccnc(C2CCCOC2)n1)c1cccs1` (centres unmarked) | 4.545% |
| 67 | `Cc1nccn1-c1cc(CNC(=O)c2ccccn2)ccn1` | 0% |
| 68 | `CC(=O)c1ccc(S(=O)(=O)NCc2cccnc2N(C)C)cc1` | 8.571% |
| 69 | `COC1CN(C(=O)C2CC2)CCC(=O)N(C)c2ccccc21` (centres unmarked) | 11.24% |
| 70 | `CCc1csc(CNc2cc(C)nc(-c3cccnc3)n2)n1` | 13.07% |
| 71 | `Cc1ccccc1-c1cc(C(=O)N2CCCC(n3ccnc3C)C2)[nH]n1` (centres unmarked) | 1.714% |
| 72 | `O=C(NC1CC1)[C@@]12CCO[C@@H]1CCN(Cc1ccc3c(c1)OCO3)C2` | 1.111% |
| 73 | `Cc1ncc(CN(C)C(=O)Nc2cccc(C(=O)N3CCOCC3)c2)s1` | 7.792% |
| 74 | `Cc1nccc(N[C@H]2CN(CCS(C)(=O)=O)C[C@@H]2C2CC2)n1` | 2.02% |
| 75 | `NC(=O)NC1CCN(Cc2ccccc2OCC(F)(F)F)CC1` | 1.657% |
| 76 | `Cc1cc(CN2CCN(C(=O)NC(C)c3cccs3)CC2)on1` (centres unmarked) | 4.734% |
| 77 | `CCCc1noc(CCC(=O)N2CCCC(n3ccnc3C)C2)n1` (centres unmarked) | 3.061% |
| 78 | `C[C@@H]1C[C@H]2CN(C(=O)C3=CCCCC3)C[C@H]2O1` | 1.942% |
| 79 | `CN(CC(N)=O)Cc1ccc(F)cc1Cl` | 2.116% |
| 80 | `Cc1c(CN2CC[C@@H](N3CCC(O)CC3)[C@H](O)C2)[nH]c2ccc(Cl)cc12` | 2.97% |
| 81 | `CCn1ccnc1CN1CCCN(C(=O)Cc2ccc(C)s2)CC1` | 7.692% |
| 82 | `CCNc1cc2c(nn1)CCN(C(=O)c1cc(C)no1)C2` | 6.78% |
| 83 | `CC(=O)N1CCCC1C(=O)NCCOc1cccc(F)c1` (centres unmarked) | 2.286% |
| 84 | `COc1ccc(CN2CCN(c3nccnc3OC)CC2=O)cc1` | 6.931% |
| 85 | `CC(=O)N1CCCC1c1cccc(Cc2ccccc2F)n1` (centres unmarked) | 8.108% |
| 86 | `C[C@@H]1CN(C2(C(=O)N3CCNCC3)Cc3ccccc3C2)C[C@H](C)O1` | 6.931% |
| 87 | `Cc1ccc(C)n1-c1c(C(=O)NCC(c2ccsc2)N(C)C)cnn1C` (centres unmarked) | -3.659% |
| 88 | `Cc1ccc(C(=O)N2CCOC(c3nc(C(C)(C)C)n[nH]3)C2)c(=O)[nH]1` (centres unmarked) | 6.897% |
| 89 | `COCCS(=O)(=O)NC(C)c1ccc(-n2nc(C)cc2C)cc1` (centres unmarked) | 4.202% |
| 90 | `Cc1cnc2c(c1NCc1ccc(F)cc1)c(=O)n(C)c(=O)n2C` | 1.205% |
| 91 | `Cn1cnc2c(-c3cccnc3)nc(C3CCNCC3)cc21` | 6.186% |

For reference, 6 entries once more:

Compound,effect
COC(=O)N1CCC(Nc2ccc(Cl)c(C#N)n2)CC1,3.982%
CNC(=O)c1ccnc(CC2COc3c(cccc3OC)C2)c1 (centres unmarked),7.463%
CC(=O)c1ccc(S(=O)(=O)NCc2cccnc2N(C)C)cc1,8.571%
Cn1c(CO)cnc1SC(C(=O)NC1CC1)c1ccccc1 (centres unmarked),2.299%
COc1cccc(CNc2c(C)cnc3c2c(=O)n(C)c(=O)n3C)c1,-1.653%
O=C(NCc1ccnc(C2CCCOC2)n1)c1cccs1 (centres unmarked),4.545%

Data taken from ChEMBL document CHEMBL3988442, “University of Dundee, Small-Polar-MMV Screening Library” (2021).